Experimental data reported in ChEMBL document CHEMBL1154551, “Microbial transformation of benzosampangine” (2000).
Converted amounts (≈) assume the structure as drawn.

Test system: Candida albicans
Experiment: Antimicrobial activity against Candida albicans
Assay type: functional

MIC: 0.78 µg/mL (≈ 0.844 µM)
Compound: C[C@@H]1[C@H](O)[C@@H](C)/C=C/C=C/C=C/C=C/C=C/C=C/C=C/[C@H](O[C@@H]2O[C@H](C)[C@@H](O)[C@H](N)[C@@H]2O)C[C@@H]2O[C@](O)(C[C@@H](O)C[C@@H](O)[C@H](O)CC[C@@H](O)C[C@@H](O)CC(=O)O[C@H]1C)C[C@H](O)[C@H]2C(=O)O [AMPHOTERICIN B]
